Test results from PubChem BioAssay AID256 (DTP/NCI, 2004).
The list is a part of this screen's results and no random one: it is rich in T/C values a quarter to a half above the control, in often repeated tests (any T/C) and in doses without a T/C. Other doses and runs of a compound stand elsewhere. T/C gives the treated animals as a percentage of the vehicle group. Some entries give survivors of the animals treated and no T/C: the source files T/C as zero there, which appears to mark a toxic dose or a test without result, not a measured value. Some doses without a T/C left all or most animals alive at the check, yet need not have been tolerated: the source hardly ever lists a survival T/C far under the control, and the zero likely stands for such cases as well. Counts of survivors are from the toxicity check (mostly the fifth day) where no day follows; animals may have died later. Schedule codes are those of the source, read here as Q, the interval in days (D) or hours (H), X, the number of doses. Some molecules as drawn cover several salts, stereoisomers or complexes of the source; a dose is that of the sample tested. Counts like (3×) count equal records among those shown. Some entries were tested several times; the values are given in rising order. Where survival is the endpoint, the PubChem record calls one and a half times the control and up active, and a quarter to a half above the control has no call in these data; cut-offs in other NCI protocols can differ. Some T/C values carry the count of animals alive at the toxicity check (mostly the fifth day); without a count, all were alive then.

System: CD2F1 mice, L1210 leukemia ip, survival T/C
Assay: NCI In Vivo Anticancer Drug Screen. Data for tumor model L1210 Leukemia (intraperitoneal) in CD2F1 (CDF1) mice
Details: higher T/C = longer survival
In short: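 Compound-dosed mice with transplantable tumor versus matched vehicle controls; endpoint ratio T/C reported.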

[1] = T/C endpoint: mean survival time, dose: 12.5 mg/kg/injection, schedule: Q01DX009 (ip), vehicle: saline with Tween-80
[2] = T/C endpoint: mean survival time, dose: 25.0 mg/kg/injection, schedule: Q01DX009 (ip), vehicle: saline with Tween-80
[3] = T/C endpoint: mean survival time, dose: 200.0 mg/kg/injection, schedule: Q01DX001 (ip), vehicle: saline with Tween-80
[4] = T/C endpoint: mean survival time, dose: 400.0 mg/kg/injection, schedule: Q01DX001 (ip), vehicle: saline with Tween-80
[5] = T/C endpoint: mean survival time, dose: 50.0 mg/kg/injection, schedule: Q04DX003 (ip), vehicle: Klucel (hydroxypropylcellulose) (HPC)
[6] = T/C endpoint: mean survival time, dose: 100.0 mg/kg/injection, schedule: Q01DX009 (ip), vehicle: distilled water + Tween-80
[7] = T/C endpoint: mean survival time, dose: 50.0 mg/kg/injection, schedule: Q01DX009 (ip), vehicle: saline with Tween-80

In the case of `CSc1ccccc1C[P+](c1ccccc1)(c1ccccc1)c1ccccc1`, the survivor count (T/C endpoint: mean survival time, dose: 6.25 mg/kg/injection, schedule: Q01DX009 (ip), vehicle: saline with Tween-80) is reported as 6 of 6, the survivor count [1] is reported as 5 of 6 and the survivor count [2] is reported as 2 of 6. For the same molecule, the survivor count (T/C endpoint: mean survival time, dose: 100.0 mg/kg/injection, schedule: Q01DX009 (ip), vehicle: saline with Tween-80) was 0 of 6, the survivor count (T/C endpoint: mean survival time, dose: 200.0 mg/kg/injection, schedule: Q01DX009 (ip), vehicle: saline with Tween-80) was 0 of 6 and the survivor count (T/C endpoint: mean survival time, dose: 400.0 mg/kg/injection, schedule: Q01DX009 (ip), vehicle: saline with Tween-80) was 0 of 6.
`COC1=[C]([Hg][Br])C(OC)OC1OC` (configuration not stated) was tested, and the survivor count (T/C endpoint: mean survival time, dose: 100.0 mg/kg/injection, schedule: Q01DX001 (ip), vehicle: saline with Tween-80) was 0 of 6, the survivor count [3] was 0 of 6 and the survivor count [4] was 0 of 6.
In the case of `COC(=O)Nc1cn2cc(C(=O)c3cccs3)ccc2n1`, the survivor count (T/C endpoint: median survival time, dose: 100.0 mg/kg/injection, schedule: Q01DX009 (ip), vehicle: Klucel (hydroxypropylcellulose) (HPC)) is reported as 5 of 6 and the survivor count (T/C endpoint: median survival time, dose: 200.0 mg/kg/injection, schedule: Q01DX009 (ip), vehicle: Klucel (hydroxypropylcellulose) (HPC)) is reported as 6 of 6.
In the case of `O=C1OC(=O)[C@H]2[C@@H]1[C@H]1C=C[C@@H]2OC1=O`, the survivor count (T/C endpoint: median survival time, dose: 400.0 mg/kg/injection, schedule: Q01DX009 (ip), vehicle: saline) is reported as 5 of 6.
`O=c1scc(-c2ccc([N+](=O)[O-])cc2)s1` was tested, and the survivor count [5] was 1 of 6.
In the case of `COC(=O)c1ccc(NC(=O)Cc2c(O)c3c(c(C)c2OC)COC3=O)cc1N`, the T/C (T/C endpoint: mean survival time, dose: 400.0 mg/kg/injection, schedule: Q04DX002 (ip), vehicle: saline) is reported as 128 % of control and the T/C (T/C endpoint: median survival time, dose: 400.0 mg/kg/injection, schedule: Q04DX002 (ip), vehicle: saline) is reported as 143 % of control.
`C[N+](C)(C)CSSC[N+](C)(C)C` was tested, and the survivor count (T/C endpoint: mean survival time, dose: 100.0 mg/kg/injection, schedule: Q04DX002 (ip), vehicle: saline with Tween-80) was 0 of 3, the survivor count (T/C endpoint: mean survival time, dose: 200.0 mg/kg/injection, schedule: Q04DX002 (ip), vehicle: saline with Tween-80) was 0 of 3 and the survivor count (T/C endpoint: mean survival time, dose: 400.0 mg/kg/injection, schedule: Q04DX002 (ip), vehicle: saline with Tween-80) was 0 of 3.
`COc1cccc2c1C(=O)c1c(O)c3c(c(O)c1C2=O)C[C@H](O)C[C@@H]3OC1CC(N)C(O)C(C)O1` (some centres not stated) was tested, and the T/C (T/C endpoint: mean survival time, dose: 6.0 mg/kg/injection, schedule: Q01DX009 (ip), vehicle: water) was 135 % of control, the T/C (T/C endpoint: mean survival time, dose: 24.0 mg/kg/injection, schedule: Q01DX009 (ip), vehicle: saline) was 138 % of control and the survivor count (T/C endpoint: mean survival time, dose: 48.0 mg/kg/injection, schedule: Q01DX009 (ip), vehicle: water) was 3 of 6.
In the case of `CC(=O)Oc1ccc(C(=O)O)cc1`, the survivor count (T/C endpoint: mean survival time, dose: 200.0 mg/kg/injection, schedule: Q01DX009 (ip), vehicle: Klucel (hydroxypropylcellulose) (HPC)) is reported as 0 of 3.
For `Cc1nn(-c2ccc(Cl)cc2)c(C)c1N=O`, the survivor count [3] was 1 of 6 and the survivor count [4] was 0 of 6.
In the case of `CCN1CCCSC1=S`, the survivor count (T/C endpoint: mean survival time, dose: 300.0 mg/kg/injection, schedule: Q01DX001 (ip), vehicle: other) is reported as 2 of 6.
For `NC(Cc1ccc(N(CCCl)Cc2ccccc2)cc1)C(=O)O` (configuration not stated), the T/C (T/C endpoint: mean survival time, dose: 3.12 mg/kg/injection, schedule: Q01DX009 (ip), vehicle: distilled water + Tween-80) was 142 % of control, the T/C (T/C endpoint: mean survival time, dose: 6.25 mg/kg/injection, schedule: Q01DX009 (ip), vehicle: distilled water + Tween-80) was 104 (2×), 105, 125 % of control and the T/C (T/C endpoint: mean survival time, dose: 12.5 mg/kg/injection, schedule: Q01DX009 (ip), vehicle: distilled water + Tween-80) was 111, 112 (2×), 113 % of control. For the same molecule, the T/C (T/C endpoint: mean survival time, dose: 25.0 mg/kg/injection, schedule: Q01DX009 (ip), vehicle: distilled water + Tween-80) was 112 [5 of 6 alive], 115, 119, 123 % of control, the T/C (T/C endpoint: mean survival time, dose: 50.0 mg/kg/injection, schedule: Q01DX009 (ip), vehicle: distilled water + Tween-80) was 89 [5 of 6 alive], 113, 117, 131 % of control and the T/C [6] was 100 [5 of 6 alive], 103, 112 % of control [9 of 10 alive]. For the same molecule, the survivor count [6] was 2 of 6.
For `COc1ccc(OC)c(/C=C(\C#N)c2ccc([N+](=O)[O-])cc2)c1`, the T/C [1] was 126 % of control, the T/C [2] was 143 % of control and the survivor count (T/C endpoint: mean survival time, dose: 37.5 mg/kg/injection, schedule: Q01DX009 (ip), vehicle: saline with Tween-80) was 6 of 6. The T/C [7] was 135 % of control, the survivor count [7] was 6 of 6 and the survivor count (T/C endpoint: mean survival time, dose: 400.0 mg/kg/injection, schedule: Q04DX003 (ip), vehicle: saline with Tween-80) was 6 of 6.
`O=NN1CCOC1=NCCCl` was tested, and the survivor count (T/C endpoint: mean survival time, dose: 400.0 mg/kg/injection, schedule: Q01DX001 (ip), vehicle: water) was 0 of 6 and the survivor count (T/C endpoint: mean survival time, dose: 800.0 mg/kg/injection, schedule: Q01DX001 (ip), vehicle: water) was 0 of 6.
In the case of `CCCC(O)C[N+](=O)[O-]` (configuration not stated), the survivor count (T/C endpoint: mean survival time, dose: 400.0 mg/kg/injection, schedule: Q01DX009 (ip), vehicle: saline) is reported as 1 of 6.
`O=c1[nH]cnc2c1cnn2CN1CCOCC1` was tested, and the survivor count (T/C endpoint: median survival time, dose: 400.0 mg/kg/injection, schedule: Q01DX009 (ip), vehicle: Klucel (hydroxypropylcellulose) (HPC)) was 2 of 6.
With `Clc1ccc(C2c3ccccc3C[n+]3ccccc32)cc1` (configuration not stated) the survivor count [5] was 1 of 6.
`CC1(C)OCC(CO)([N+](=O)[O-])CO1` was tested, and the survivor count (T/C endpoint: mean survival time, dose: 200.0 mg/kg/injection, schedule: Q04DX003 (ip), vehicle: saline with Tween-80) was 0 of 6 and the survivor count (T/C endpoint: mean survival time, dose: 300.0 mg/kg/injection, schedule: Q04DX003 (ip), vehicle: saline with Tween-80) was 0 of 6.
For `COC(OC(CO)C(O)S(=O)(=O)O)C(O)S(=O)(=O)O` (configuration not stated), the T/C (T/C endpoint: mean survival time, dose: 50.0 mg/kg/injection, schedule: Q03HX008 (ip), vehicle: saline) was 126 % of control, the T/C (T/C endpoint: mean survival time, dose: 50.0 mg/kg/injection, schedule: Q03HX024 (ip), vehicle: saline) was 126 % of control and the T/C (T/C endpoint: mean survival time, dose: 100.0 mg/kg/injection, schedule: Q01DX009 (ip), vehicle: saline) was 133 % of control. For the same molecule, the T/C (T/C endpoint: mean survival time, dose: 100.0 mg/kg/injection, schedule: Q03HX024 (ip), vehicle: saline) was 134 % of control, the T/C (T/C endpoint: mean survival time, dose: 100.0 mg/kg/injection, schedule: Q04DX003 (ip), vehicle: saline) was 128 % of control and the T/C (T/C endpoint: mean survival time, dose: 200.0 mg/kg/injection, schedule: Q01DX001 (ip), vehicle: saline) was 127 % of control. The T/C (T/C endpoint: mean survival time, dose: 200.0 mg/kg/injection, schedule: Q01DX009 (ip), vehicle: saline) was 143 % of control, the survivor count (T/C endpoint: mean survival time, dose: 200.0 mg/kg/injection, schedule: Q03HX008 (ip), vehicle: saline) was 0 of 10 and the survivor count (T/C endpoint: mean survival time, dose: 200.0 mg/kg/injection, schedule: Q03HX016 (ip), vehicle: saline) was 0 of 10. The survivor count (T/C endpoint: mean survival time, dose: 200.0 mg/kg/injection, schedule: Q03HX024 (ip), vehicle: saline) was 0 of 10, the T/C (T/C endpoint: mean survival time, dose: 200.0 mg/kg/injection, schedule: Q04DX003 (ip), vehicle: saline) was 139 % of control and the T/C (T/C endpoint: mean survival time, dose: 400.0 mg/kg/injection, schedule: Q01DX001 (ip), vehicle: saline) was 135 % of control. The survivor count (T/C endpoint: mean survival time, dose: 400.0 mg/kg/injection, schedule: Q03HX008 (ip), vehicle: saline) was 0 of 10, the survivor count (T/C endpoint: mean survival time, dose: 400.0 mg/kg/injection, schedule: Q03HX016 (ip), vehicle: saline) was 0 of 10 and the survivor count (T/C endpoint: mean survival time, dose: 400.0 mg/kg/injection, schedule: Q03HX024 (ip), vehicle: saline) was 0 of 10. For the same molecule, the T/C (T/C endpoint: mean survival time, dose: 400.0 mg/kg/injection, schedule: Q04DX003 (ip), vehicle: saline) was 143 % of control, the T/C (T/C endpoint: mean survival time, dose: 400.0 mg/kg/injection, schedule: Q08DX002 (ip), vehicle: saline) was 126 % of control and the T/C (T/C endpoint: mean survival time, dose: 800.0 mg/kg/injection, schedule: Q01DX001 (ip), vehicle: saline) was 144 % of control. The T/C (T/C endpoint: mean survival time, dose: 800.0 mg/kg/injection, schedule: Q08DX002 (ip), vehicle: saline) was 141 % of control.
For `OC1CC2c3ccccc3C1c1cccc[n+]12` (configuration not stated), the survivor count (T/C endpoint: mean survival time, dose: 100.0 mg/kg/injection, schedule: Q04DX003 (ip), vehicle: Klucel (hydroxypropylcellulose) (HPC)) was 6 of 6, the survivor count (T/C endpoint: mean survival time, dose: 200.0 mg/kg/injection, schedule: Q04DX003 (ip), vehicle: Klucel (hydroxypropylcellulose) (HPC)) was 2 of 6 and 3 of 6 and the survivor count (T/C endpoint: mean survival time, dose: 400.0 mg/kg/injection, schedule: Q04DX003 (ip), vehicle: Klucel (hydroxypropylcellulose) (HPC)) was 0 of 6 (2×).
